Part of at least one peptide drawing is inferred or uncertain, most often the ends.
Target: T1, Substance P (Cavia porcellus, UniProt P30547)
T1 construct: Strips of longitudinal muscle (derived from terminal ileum of adult male guinea pigs); from tissue; host or cells: longitudinal muscle strips of terminal ileum, adult male guinea pigs (Charles River)
Test: Guinea pig ileum test for Substance P antagonist effect
Type: cell-based
Conditions: isolated guinea pig ileum longitudinal muscle strips; Schild plot analysis; 5-10 min contact time; footnote a = limited data due to solubility, b = slope significantly different from -1
Description: As stated above the azole-fused peptides of Formula I are useful as Substance P antagonists and analgesics or as synthetic intermediates therefor.
Strips of longitudinal muscle (derived from terminal ileum of adult male guinea pigs (Charles River, 400-600 g.) are mounted in 5-ml. organ baths containing oxygenated Krebs solution containing l μM each of atropine and pyrilamine maintained at 30°-33° C. and connected to isometric transducers. Following tissue equilibration and repeated washing (45-60 min.), SP or an appropriate reference agonist is added cumulatively to the bath and contractions of the tissue are recorded. The bath is washed thoroughly and 30-45 min. is allowed to elapse before construction of a second reference agonist curve to assure reproducibility of the responses. Test compounds are similarly evaluated for agonist activity up to a maximum concentration of 10-100 μM. Regression analysis of the linear portion of the log concentration-percent maximal response curves provides the EC50 (and 95% confidence limits), the standard measure of agonist potency. When appropriate, relative molar potency ratios are calculated (EC50 reference/ED50 test drug). Antagonist activity is examined by pretreating thoroughly washed tissues with test compound (using a standard 5-10 min. contact time), then constructing a cumulative dose-response curve to the reference agonist. […]

Amino acid sequences for entries named in this document (tags omitted).
UniProt P30547, whole entry: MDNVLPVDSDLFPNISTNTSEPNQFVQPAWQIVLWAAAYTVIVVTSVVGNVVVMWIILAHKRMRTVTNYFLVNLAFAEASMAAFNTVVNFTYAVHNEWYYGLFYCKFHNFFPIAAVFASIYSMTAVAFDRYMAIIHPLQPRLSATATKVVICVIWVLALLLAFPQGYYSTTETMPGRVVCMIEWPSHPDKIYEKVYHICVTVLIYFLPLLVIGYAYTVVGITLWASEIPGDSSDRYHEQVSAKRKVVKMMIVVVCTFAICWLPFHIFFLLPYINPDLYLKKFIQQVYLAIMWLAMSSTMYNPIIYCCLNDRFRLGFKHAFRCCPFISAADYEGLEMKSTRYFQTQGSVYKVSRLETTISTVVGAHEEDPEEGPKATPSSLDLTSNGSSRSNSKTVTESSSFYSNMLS

| Compound | Substance P Antagonist pA2 |
| --- | --- |
| CC(C)c1sc([C@@H](Cc2c[nH]c3ccccc23)NC(=O)[C@H](Cc2ccccc2)NC(=O)[C@H]2Cc3c([nH]c4ccccc34)CN2)nc1CN(C)CCc1ccccc1 [Example 26] | ≤ 5 |
| CC(C)c1sc([C@@H](Cc2c[nH]c3ccccc23)NC(=O)[C@H](Cc2ccccc2)NC(=O)[C@H]2Cc3c([nH]c4ccccc34)CN2)nc1C(=O)NC[C@@H](N)Cc1ccccc1 [Example 28] | 5.8 |

From patent publication US5378803A, “Azole-fused peptides and processes for preparation thereof” (Sterling Winthrop Inc., priority 1992, dated 1995)
